# The other results are listed elsewhere or left out.
# How the values were obtained:
# Assay in all cases: glycan array binding signal (z-score within array); higher = stronger binding
# Conditions in all cases: glycan notation: IUPAC condensed, linker removed
# [1] = molecular target: Man(a1-3)[Man(a1-6)]Man(a1-6)[Man(a1-3)]Man
# Procedure, shortened: (§1)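 The binding signal is a Z-score computed within each array and averaged over linkers. Arrays of the same protein sequence at different concentrations or buffers were also averaged together. Data originate from 3228 arrays in the Consortium for Functional Glycomics database, kept only where the protein sequence was available.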
# [2] = molecular target: Man(a1-3)[Man(a1-6)]Man(a1-6)[Man(a1-3)]Man(b1-4)GlcNAc(b1-4)GlcNAc
# Procedure, shortened: as §1
# [3] = molecular target: Man(a1-3)[Man(a1-6)]Man(b1-4)GlcNAc(b1-4)GlcNAc
# Procedure, shortened: as §1
# [4] = molecular target: Man(a1-3)[Man(a1-6)]Man(b1-4)GlcNAc(b1-4)[Fuc(a1-6)]GlcNAc
# Procedure, shortened: as §1
# Man(a1-6)Man = molecular target: Man(a1-6)Man
# Procedure, shortened: as §1
# Man(b1-4)GlcNAc = molecular target: Man(b1-4)GlcNAc
# Procedure, shortened: as §1
# MurNAc(b1-4)GlcNAc = molecular target: MurNAc(b1-4)GlcNAc
# Procedure, shortened: as §1
# Neu5Ac(a2-3)Gal = molecular target: Neu5Ac(a2-3)Gal
# Procedure, shortened: as §1
# [5] = molecular target: Neu5Ac(a2-3)Gal(b1-3)GalNAc
# Procedure, shortened: as §1
# [6] = molecular target: Neu5Ac(a2-3)Gal(b1-3)GalNAc(b1-3)Gal(a1-4)Gal(b1-4)Glc
# Procedure, shortened: as §1
# [7] = molecular target: Neu5Ac(a2-3)Gal(b1-3)GalNAc(b1-4)Gal(b1-4)Glc
# Procedure, shortened: as §1
# [8] = molecular target: Neu5Ac(a2-3)Gal(b1-3)GalNAc(b1-4)[Neu5Ac(a2-3)]Gal(b1-4)Glc
# Procedure, shortened: as §1
# [9] = molecular target: Neu5Ac(a2-3)Gal(b1-3)GalNAc(b1-4)[Neu5Ac(a2-8)Neu5Ac(a2-3)]Gal(b1-4)Glc
# Procedure, shortened: as §1
# [10] = molecular target: Neu5Ac(a2-3)Gal(b1-3)GalNAc6S
# Procedure, shortened: as §1
# [11] = molecular target: Neu5Ac(a2-3)Gal(b1-3)GlcNAc
# Procedure, shortened: as §1
# [12] = molecular target: Neu5Ac(a2-3)Gal(b1-3)GlcNAc(b1-2)Man
# Procedure, shortened: as §1
# [13] = molecular target: Neu5Ac(a2-3)Gal(b1-3)GlcNAc(b1-2)Man(a1-3)[GlcNAc(b1-4)][Neu5Ac(a2-3)Gal(b1-3)GlcNAc(b1-2)Man(a1-6)]Man(b1-4)GlcNAc(b1-4)GlcNAc
# Procedure, shortened: as §1
# [14] = molecular target: Neu5Ac(a2-3)Gal(b1-3)GlcNAc(b1-2)Man(a1-3)[Neu5Ac(a2-3)Gal(b1-3)GlcNAc(b1-2)Man(a1-6)]Man(b1-4)GlcNAc(b1-4)GlcNAc
# Procedure, shortened: as §1
# [15] = molecular target: Neu5Ac(a2-3)Gal(b1-3)GlcNAc(b1-2)[Neu5Ac(a2-3)Gal(b1-3)GlcNAc(b1-4)]Man(a1-6)[Neu5Ac(a2-3)Gal(b1-3)GlcNAc(b1-2)Man(a1-3)]Man(b1-4)GlcNAc(b1-4)GlcNAc
# Procedure, shortened: as §1
# [16] = molecular target: Neu5Ac(a2-3)Gal(b1-3)GlcNAc(b1-3)Gal(b1-3)GlcNAc
# Procedure, shortened: as §1
# [17] = molecular target: Neu5Ac(a2-3)Gal(b1-3)GlcNAc(b1-3)Gal(b1-4)GlcNAc
# Procedure, shortened: as §1
# [18] = molecular target: Neu5Ac(a2-3)Gal(b1-3)GlcNAc(b1-3)GalNAc
# Procedure, shortened: as §1
# [19] = molecular target: Neu5Ac(a2-3)Gal(b1-3)GlcNAc(b1-6)GalNAc
# Procedure, shortened: as §1
# [20] = molecular target: Neu5Ac(a2-3)Gal(b1-3)GlcNAc6S
# Procedure, shortened: as §1
# [21] = molecular target: Neu5Ac(a2-3)Gal(b1-3)[Fuc(a1-4)]GlcNAc
# Procedure, shortened: as §1
# [22] = molecular target: Neu5Ac(a2-3)Gal(b1-3)[Fuc(a1-4)]GlcNAc(b1-3)Gal(b1-3)[Fuc(a1-4)]GlcNAc
# Procedure, shortened: as §1
# [23] = molecular target: Neu5Ac(a2-3)Gal(b1-3)[Fuc(a1-4)]GlcNAc(b1-3)Gal(b1-4)[Fuc(a1-3)]GlcNAc
# Procedure, shortened: as §1
# [24] = molecular target: Neu5Ac(a2-3)Gal(b1-3)[GlcNAc(b1-6)]GalNAc
# Procedure, shortened: as §1
# [25] = molecular target: Neu5Ac(a2-3)Gal(b1-3)[Neu5Ac(a2-6)]GalNAc
# Procedure, shortened: as §1
# [26] = molecular target: Neu5Ac(a2-3)Gal(b1-3)[Neu5Ac(a2-6)]GlcNAc(b1-3)[Fuc(a1-3)[Gal(b1-4)]GlcNAc(b1-6)]Gal(b1-4)Glc
# Procedure, shortened: as §1
# [27] = molecular target: Neu5Ac(a2-3)Gal(b1-3)]Neu5Ac(a2-3)Gal(b1-4)]GlcNAc
# Procedure, shortened: as §1
# Neu5Ac(a2-3)Gal(b1-4)Glc = molecular target: Neu5Ac(a2-3)Gal(b1-4)Glc
# Procedure, shortened: as §1
# [28] = molecular target: Neu5Ac(a2-3)Gal(b1-4)GlcNAc
# Procedure, shortened: as §1
# [29] = molecular target: Neu5Ac(a2-3)Gal(b1-4)GlcNAc(b1-2)Man
# Procedure, shortened: as §1
# [30] = molecular target: Neu5Ac(a2-3)Gal(b1-4)GlcNAc(b1-2)Man(a1-3)[GlcNAc(b1-4)][Neu5Ac(a2-3)Gal(b1-4)GlcNAc(b1-2)Man(a1-6)]Man(b1-4)GlcNAc(b1-4)GlcNAc
# Procedure, shortened: as §1
# [31] = molecular target: Neu5Ac(a2-3)Gal(b1-4)GlcNAc(b1-2)Man(a1-3)[Neu5Ac(a2-3)Gal(b1-4)GlcNAc(b1-2)Man(a1-6)]Man(b1-4)GlcNAc(b1-4)GlcNAc
# Procedure, shortened: as §1
# [32] = molecular target: Neu5Ac(a2-3)Gal(b1-4)GlcNAc(b1-2)Man(a1-3)[Neu5Ac(a2-3)Gal(b1-4)GlcNAc(b1-2)Man(a1-6)]Man(b1-4)GlcNAc(b1-4)[Fuc(a1-6)]GlcNAc
# Procedure, shortened: as §1
# [33] = molecular target: Neu5Ac(a2-3)Gal(b1-4)GlcNAc(b1-2)Man(a1-3)[Neu5Ac(a2-6)Gal(b1-4)GlcNAc(b1-2)Man(a1-6)]Man(b1-4)GlcNAc(b1-4)GlcNAc
# Procedure, shortened: as §1
binder,measurement,setting,value
Clec39 (Caenorhabditis elegans) (protein) MTSFYDNSSSSSKPVPLKTSRAQKIQILIFDNWKLILYGAISTLILVLAIMFSTLFFALPAANCDENSEPTKYYTTNAEITTTITTTNQKTTSTASSHLTTISSSATQIYSESSSSSTSQSTFTQSPPEISTTTIAPSDFSCQHGFTLVNNKCWKLVTSNQARPDADKICNGYGGATLFSIKSEQDNRAMIHFVKGQDIDFLWSGLLCSAGEPISCIWDIENGSTANYSNFADGFPNIVYGNCVYFITSGDEAGQWGNEQCGQVMNFVCELPATFQGKDGCKNNYEKSCYLRFDLNLTVPQAQNFCLEKCANLVSIHSANEVRFIMTIYDFIGEILIGALAPAQDFIYWLDGTPANYNNLKFFYNSTCVHMTVAPGMQNVGKWFTRFCTETGKFLCKRSIKNSCT,glycan array binding signal (z-score),[1],1.41
same,glycan array binding signal (z-score),[2],0.164
same,glycan array binding signal (z-score),[3],-0.035
same,glycan array binding signal (z-score),[4],0.149
same,glycan array binding signal (z-score),Man(a1-6)Man,0.877
same,glycan array binding signal (z-score),Man(b1-4)GlcNAc,0.705
same,glycan array binding signal (z-score),MurNAc(b1-4)GlcNAc,0.196
same,glycan array binding signal (z-score),Neu5Ac(a2-3)Gal,-1.96
same,glycan array binding signal (z-score),[5],-0.668
same,glycan array binding signal (z-score),[6],-0.742
same,glycan array binding signal (z-score),[7],-0.356
same,glycan array binding signal (z-score),[8],0.388
same,glycan array binding signal (z-score),[9],-1.24
same,glycan array binding signal (z-score),[10],-1.02
same,glycan array binding signal (z-score),[11],-0.787
same,glycan array binding signal (z-score),[12],-0.917
same,glycan array binding signal (z-score),[13],0.452
same,glycan array binding signal (z-score),[14],0.023
same,glycan array binding signal (z-score),[15],0.47
same,glycan array binding signal (z-score),[16],-0.142
same,glycan array binding signal (z-score),[17],-0.381
same,glycan array binding signal (z-score),[18],-0.569
same,glycan array binding signal (z-score),[19],0.87
same,glycan array binding signal (z-score),[20],-0.224
same,glycan array binding signal (z-score),[21],1.01
same,glycan array binding signal (z-score),[22],-0.873
same,glycan array binding signal (z-score),[23],1.35
same,glycan array binding signal (z-score),[24],-0.413
same,glycan array binding signal (z-score),[25],-0.738
same,glycan array binding signal (z-score),[26],0.882
same,glycan array binding signal (z-score),[27],0.728
same,glycan array binding signal (z-score),Neu5Ac(a2-3)Gal(b1-4)Glc,0.745
same,glycan array binding signal (z-score),[28],-0.853
same,glycan array binding signal (z-score),[29],0.524
same,glycan array binding signal (z-score),[30],1.43
same,glycan array binding signal (z-score),[31],-0.756
same,glycan array binding signal (z-score),[32],-0.137
same,glycan array binding signal (z-score),[33],2.22

# Reformatted bar-delimited: entries from further up
binder | measurement | setting | value
Clec39 (Caenorhabditis elegans) (protein) MTSFYDNSSSSSKPVPLKTSRAQKIQILIFDNWKLILYGAISTLILVLAIMFSTLFFALPAANCDENSEPTKYYTTNAEITTTITTTNQKTTSTASSHLTTISSSATQIYSESSSSSTSQSTFTQSPPEISTTTIAPSDFSCQHGFTLVNNKCWKLVTSNQARPDADKICNGYGGATLFSIKSEQDNRAMIHFVKGQDIDFLWSGLLCSAGEPISCIWDIENGSTANYSNFADGFPNIVYGNCVYFITSGDEAGQWGNEQCGQVMNFVCELPATFQGKDGCKNNYEKSCYLRFDLNLTVPQAQNFCLEKCANLVSIHSANEVRFIMTIYDFIGEILIGALAPAQDFIYWLDGTPANYNNLKFFYNSTCVHMTVAPGMQNVGKWFTRFCTETGKFLCKRSIKNSCT | glycan array binding signal (z-score) | [4] | 0.149
same | glycan array binding signal (z-score) | [9] | -1.24
